According to patent US8133513B2, “Solid preparation having improved solubility” (Shionogi & Co., Ltd., priority 2006, dated 2012):
≈ marks a conversion by molar mass, not a printed value.

Test: physchem

Which solubility does the source give for `COC(=O)C1=C(C)NC(C)=C(C(=O)OC)C1c1ccccc1[N+](=O)[O-]` [nifedipine, Nifedipine] here?
The solubility was about 6 µg/mL (≈ 17.3 µM).
